The data set relates to NtARF8-His (Nicotiana tabacum (cv. NC89)). In words: EMSA. To be noted: not stated (EMSA by previously described methods, ref 47); recombinant protein; label: biotin.

Construct, isoform or probe ends are uncertain for at least one entry. A negative result means that nothing was seen under these conditions.

Consider 2 sequences from publication PMC4890496.

“CATTATTTACGTAGATGTTTTCCTG (double strand) [mutant probe]”: the binding result was “no binding”.

As for “CATTATTTACGTGTCTGTTTTCCTG (double strand) [WT probe (TGTCT auxin response element)]”, the binding result is “binds”.
